Among all 260,000 compounds or so, about 1,500 (0.58%) were called active. The inconclusive results got no clear call from the source; some entries with a clear call stand among them for comparison.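 How the source made its calls: active means inhibition above a set limit at one or more doses, reproduced on every date tested; inconclusive means results disagree between test dates, or hit never tested in dose response; inactive means the rest.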
What follows are compounds tested against Virion infectivity factor (Human immunodeficiency virus type 1 group M subtype B (isolate BH10)) + Virion infectivity factor (Human immunodeficiency virus type 1 group M subtype B (isolate BRU/LAI)) + Virion infectivity factor (Human immunodeficiency virus type 1 group M subtype B (isolate PCV12)) + Virion infectivity factor (Human immunodeficiency virus type 1 group M subtype B (isolate HXB2)) + DNA dC->dU-editing enzyme APOBEC-3G (Homo sapiens) (UniProt P69720+P69721+P69722+P69723+Q9HC16) (assay: inhibitors of Vif binding to APOBEC3G peptide, primary screen, biochemical, TR-FRET, GST-Vif 1-94, biotin-A3G peptide, dose response retest (AID 1117319;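 further: Vif residues 1-94 fused to GST binding biotinylated APOBEC3G peptide 110-148; 0% = full assay without inhibitor and 100% = GST in place of GST-Vif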)). Details: active compounds read high.

Chains of the proteins cited; added tags and fusions are not shown. Lines headed by an entry give the natural chain unless they say otherwise; changes in a name come on top.
UniProt P69720: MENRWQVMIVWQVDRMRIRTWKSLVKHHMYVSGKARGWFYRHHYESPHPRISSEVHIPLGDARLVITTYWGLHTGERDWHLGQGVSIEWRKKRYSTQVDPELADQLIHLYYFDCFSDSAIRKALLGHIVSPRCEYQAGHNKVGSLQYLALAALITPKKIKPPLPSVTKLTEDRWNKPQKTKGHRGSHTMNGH
UniProt P69721: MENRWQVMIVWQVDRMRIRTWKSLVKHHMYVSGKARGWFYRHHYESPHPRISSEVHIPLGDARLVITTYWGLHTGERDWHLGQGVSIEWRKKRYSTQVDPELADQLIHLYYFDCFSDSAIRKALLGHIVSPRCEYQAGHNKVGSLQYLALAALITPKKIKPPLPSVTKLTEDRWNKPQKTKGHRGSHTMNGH
UniProt P69722: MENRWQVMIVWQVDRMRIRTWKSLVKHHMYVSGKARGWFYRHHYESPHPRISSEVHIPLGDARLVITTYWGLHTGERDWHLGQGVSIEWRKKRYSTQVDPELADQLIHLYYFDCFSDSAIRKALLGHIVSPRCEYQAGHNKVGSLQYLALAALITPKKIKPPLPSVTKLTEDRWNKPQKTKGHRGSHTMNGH
UniProt P69723: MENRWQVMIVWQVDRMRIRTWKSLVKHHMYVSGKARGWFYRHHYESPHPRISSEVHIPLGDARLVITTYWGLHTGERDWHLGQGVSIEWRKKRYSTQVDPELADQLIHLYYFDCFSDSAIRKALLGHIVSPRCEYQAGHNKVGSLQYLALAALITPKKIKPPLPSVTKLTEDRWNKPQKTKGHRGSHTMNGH
UniProt Q9HC16: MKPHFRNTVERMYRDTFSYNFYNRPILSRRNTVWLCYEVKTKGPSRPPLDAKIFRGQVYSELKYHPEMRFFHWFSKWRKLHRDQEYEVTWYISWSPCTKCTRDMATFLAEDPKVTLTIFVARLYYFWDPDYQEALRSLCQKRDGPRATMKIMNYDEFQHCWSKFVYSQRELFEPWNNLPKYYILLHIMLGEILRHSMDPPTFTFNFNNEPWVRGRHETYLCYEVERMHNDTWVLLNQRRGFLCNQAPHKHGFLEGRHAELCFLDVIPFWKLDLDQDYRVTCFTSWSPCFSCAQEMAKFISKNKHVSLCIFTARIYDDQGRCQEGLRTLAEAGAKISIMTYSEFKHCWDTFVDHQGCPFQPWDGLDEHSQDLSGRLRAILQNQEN

| Structure (SMILES) | inhibition |
| --- | --- |
| Cc1cc(NC(=O)C2CCN(S(=O)(=O)c3cccs3)CC2)no1 | inconclusive: 55% |
| COc1cccc(-n2c(CN3CCN(c4ccccc4)CC3)nc3ccc([N+](=O)[O-])cc3c2=O)c1 | inconclusive: 59.9% |
| COc1ccc(S(=O)(=O)N2CCCC(C(=O)NCc3ccccn3)C2)cc1 (stereo not given) | inconclusive: 42.4% |
| Cc1ccc(-c2nc3c(c(=O)[nH]c(=O)n3CC(C)C)n2CC(C)C)cc1[N+](=O)[O-] | inconclusive: 33.4% |
| Cc1csc(NC(=O)c2cnccn2)n1 | inconclusive: 40.8% |
| CC(C)(C)c1ccc2c(c1)N(CC(=O)O)C(=O)CO2 | inconclusive: 49% |
| CCOC(=O)c1ccc(-n2c(CN3CCC(O)CC3)nc3ccc([N+](=O)[O-])cc3c2=O)cc1 | inconclusive: 42.2% |
| O=S(=O)(Cc1ccccc1Cl)NCCc1ccccc1 | inconclusive: 35.9% |
| O=C1CSC(=S)N1c1ccccc1 | inactive: -4.55% |
| CCNC(=O)N1c2ccc(OC)cc2C(C)=CC1(C)C | inactive: 18.1% |
| CC(Sc1nc2ccccc2s1)C(=O)N1CCOCC1 (stereo not given) | inconclusive: 37.5% |
| COc1ccc(C(=O)NC(=S)Nc2ccc(Cc3ccncc3)cc2)cc1 | inconclusive: 55.1% |
| COC(=O)c1[nH]c2ccc(C)cc2c1NC(=O)Nc1ccc(OC)cc1 | inconclusive: 49.9% |
| CC(C)C[C@@H](CN(N=O)[C@@H](Cc1ccccc1)CN(C)N=O)N(CCc1ccccc1)N=O | inconclusive: 38% |
| CCOC(=O)c1cc2sccc2n1CC(=O)c1ccc2c(c1)OCCO2 | inconclusive: 49.7% |
| O=C(Nc1nnc(-c2ccccc2)s1)c1cc(S(=O)(=O)N2CCOCC2)c(Cl)cc1Cl | inconclusive: 48.3% |
| CCCn1cc(S(=O)(=O)c2ccc(OC)cc2)c(=O)c2cc(OCC)ccc21 | inconclusive: 51.5% |
| NC(=O)COC(=O)c1ccc(-c2ccccc2)cc1 | inactive: -9.63% |
| O=S(=O)(c1ccc(NC(=S)Nc2ccc3c(c2)OCO3)cc1)N1CCOCC1 | inconclusive: 59.7% |
| O=C(COc1ccc(CO)cc1Cl)Nc1ccc(F)cc1 | inconclusive: 45.6% |
| CC1N(C)c2cc(NC(=O)c3ccco3)ccc2C1(C)C (stereo not given) | inconclusive: 24.6% |
| Cn1c(SCC(=O)c2ccc(O)c(O)c2)nnc1-c1cccs1 | inconclusive: 50.4% |
| O=C(COc1ccccc1)c1cn(CC(=O)N2CCOCC2)c2ccccc12 | inconclusive: 21.3% |
| CC(C)CCN1CCN(Cc2cn[nH]c2C2CCCCC2)CC1CCO (stereo not given) | inconclusive: 57.9% |
| CCCn1cnc2cc(NCc3ccc(Br)cc3)ccc21 | inactive: -8.23% |

— PubChem BioAssay AID1117319 (Southern Research Institute, 2015)
